In publication PMC10371808:
These are yes or no findings as the source states them, for the method shown. In cells and extracts the contact can be indirect. These calls come from enrichment with a bait or labelling near it, and not all partners need be listed.

Protein sequences, listed by entry. Tags and fused reporters are not part of them. Lines headed by an entry give the natural chain unless they say otherwise; changes in a name come on top.
UniProt P9WG67, whole entry, looked up, stated change not applied: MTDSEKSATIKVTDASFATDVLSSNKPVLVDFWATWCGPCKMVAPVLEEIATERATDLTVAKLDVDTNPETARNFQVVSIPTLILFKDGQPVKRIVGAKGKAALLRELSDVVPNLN

B1: NrdF1 (enzyme, UniProt P9WH73 1-322)
chain: MTGKLVERVHAINWNRLLDAKDLQVWERLTGNFWLPEKIPLSNDLASWQTLSSTEQQTTIRVFTGLTLLDTAQATVGAVAMIDDAVTPHEEAVLTNMAFMESVHAKSYSSIFSTLCSTKQIDDAFDWSEQNPYLQRKAQIIVDYYRGDDALKRKASSVMLESFLFYSGFYLPMYWSSRGKLTNTADLIRLIIRDEAVHGYYIGYKCQRGLADLTDAERADHREYTCELLHTLYANEIDYAHDLYDELGWTDDVLPYMRYNANKALANLGYQPAFDRDTCQVNPAVRAALDPGAGENHDFFSGSGSSYVMGTHQPTTDTDWDF
B2: Rv2624c (protein, UniProt P9WFD5 1-272)
chain: MSGRGEPTMKTIIVGIDGSHAAITAALWGVDEAISRAVPLRLVSVIKPTHPSPDDYDRDLAHAERSLREAQSAVEAAGKLVKIETDIPRGPAGPVLVEASRDAEMICVGSVGIGRYASSILGSTATELAEKAHCPVAVMRSKVDQPASDINWIVVRMTDAPDNEAVLEYAAREAKLRQAPILALGGRPEELREIPDGEFERRVQDWHHRHPDVRVYPITTHTGIARFLADHDERVQLAVIGGGEAGQLARLVGPSGHPVFRHAECSVLVVRR
B3: thiol peroxidase (TpX) (enzyme, UniProt P9WG35 1-165)
chain: MAQITLRGNAINTVGELPAVGSPAPAFTLTGGDLGVISSDQFRGKSVLLNIFPSVDTPVCATSVRTFDERAAASGATVLCVSKDLPFAQKRFCGAEGTENVMPASAFRDSFGEDYGVTIADGPMAGLLARAIVVIGADGNVAYTELVPEIAQEPNYEAALAALGA
B4: Rv2623 (protein, UniProt P9WFD7 1-297)
chain: MSSGNSSLGIIVGIDDSPAAQVAVRWAARDAELRKIPLTLVHAVSPEVATWLEVPLPPGVLRWQQDHGRHLIDDALKVVEQASLRAGPPTVHSEIVPAAAVPTLVDMSKDAVLMVVGCLGSGRWPGRLLGSVSSGLLRHAHCPVVIIHDEDSVMPHPQQAPVLVGVDGSSASELATAIAFDEASRRNVDLVALHAWSDVDVSEWPGIDWPATQSMAEQVLAERLAGWQERYPNVAITRVVVRDQPARQLVQRSEEAQLVVVGSRGRGGYAGMLVGSVGETVAQLARTPVIVARESLT
B5: Rv1462 (protein, UniProt P9WFP5 1-397)
chain: MTAPGLTAAVEGIAHNKGELFASFDVDAFEVPHGRDEIWRFTPLRRLRGLHDGSARATGSATITVSERPGVYTQTVRRGDPRLGEGGVPTDRVAAQAFSSFNSATLVTVERDTQVVEPVGITVTGPGEGAVAYGHLQVRIEELGEAVVVIDHRGGGTYADNVEFVVDDAARLTAVWIADWADNTVHLSAHHARIGKDAVLRHVTVMLGGDVVRMSAGVRFCGAGGDAELLGLYFADDGQHLESRLLVDHAHPDCKSNVLYKGALQGDPASSLPDAHTVWVGDVLIRAQATGTDTFEVNRNLVLTDGARADSVPNLEIETGEIVGAGHASATGRFDDEQLFYLRSRGIPEAQARRLVVRGFFGEIIAKIAVPEVRERLTAAIEHELEITESTEKTTVS

How the values were obtained:
[1] = target: TrxC C40S (M. tuberculosis) (UniProt P9WG67); test: affinity purification with mass spectrometry; only the target purified
[2] = target: T1, NrdH C14S (M. tuberculosis) (UniProt A5U767); test: as above
T1 sequence: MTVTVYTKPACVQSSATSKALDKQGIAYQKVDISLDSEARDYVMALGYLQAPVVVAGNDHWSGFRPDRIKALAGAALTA

Row | Binder | binding [1] | binding [2]
1 | B1 | binds | 
2 | B2 | binds | 
3 | B3 |  | binds
4 | B4 | binds | 
5 | B5 | binds | 
